The values that follow are results of earlier work, collected in Sander's compilation of Henry's law constants.

The data set can be described thus: Henry solubility constant Hcp at 298.15 K (mol/(m3 Pa)). As to conditions: reference: Brockbank (2013); cited value.

With `CCCCCCCCCO` [1-nonanol], the “Henry solubility constant Hcp” value was 0.27.
